For one substance, binding results are on record in paper PMC3516536.

By UniProt entry, the sequences of proteins in these tests, tags left out.
UniProt A0A1D8PJ17: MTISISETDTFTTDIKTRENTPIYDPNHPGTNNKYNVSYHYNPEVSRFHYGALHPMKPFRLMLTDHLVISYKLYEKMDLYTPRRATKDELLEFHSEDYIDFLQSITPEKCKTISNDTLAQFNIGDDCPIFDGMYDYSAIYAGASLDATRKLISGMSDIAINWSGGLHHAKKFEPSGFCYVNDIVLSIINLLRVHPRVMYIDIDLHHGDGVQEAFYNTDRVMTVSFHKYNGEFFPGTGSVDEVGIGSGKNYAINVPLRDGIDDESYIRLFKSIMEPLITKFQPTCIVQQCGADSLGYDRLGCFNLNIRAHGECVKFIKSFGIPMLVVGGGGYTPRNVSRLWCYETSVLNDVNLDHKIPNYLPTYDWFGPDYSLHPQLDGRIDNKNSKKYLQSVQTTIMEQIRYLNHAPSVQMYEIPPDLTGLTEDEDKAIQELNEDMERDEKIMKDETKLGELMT

The test deals with Set3-3HA (C. albicans). Kind of test: co-IP; Set3-3HA immunoprecipitated from whole cell extracts with anti-HA (3F10) agarose beads; stringent lysis buffer (PBS with 300 mM NaCl, 1% Triton X-100, 2 mM DTT); immunoblot for Hos2-9myc (anti-myc). On the technique in general: A western blot detects proteins with antibodies after separation by electrophoresis.

These are yes or no findings as the source states them, for the method shown. Binding seen in cells or lysates may run through a third protein. Binding calls can cover weak binding; strength is not graded here.

Take “Hos2-9myc (from UniProt A0A1D8PJ17 1-454)”: the binding result is reported as “binds”.
